Measured values from PubChem BioAssay AID2685 (National Center for Advancing Translational Sciences (NCATS), 2010).
The list shows a part of the results. These are further read-outs of the screen, such as a control signal, another cell line or another target. No call is given for them. The list favours compounds with an active or inconclusive main result. Potencies come from curve fits of mixed quality, noted in brackets.

Test: qHTS Assay for Lipid Storage Modulators in Drosophila S3 Cells;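 for cell number change: cells counted by Cell Tracker Red CMTPX staining in the red channel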
Conditions: BODIPY lipid droplet fluorescence, 18-24 h; for cell number change: measured here: cell count max response, cells fed with added oleic acid
Method in brief: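 Laser-scanning cytometry quantifies lipid droplet accumulation (500–530 nm total intensity; droplet/cell object ratio) in oleic acid-fed (400 uM added) Drosophila S3 cells treated with a concentration series. 20 uM Triacsin C defined 100% inhibition.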

[1] = measured here: cell number channel AC50, cells fed with added oleic acid
[2] = measured here: lipid fluorescence (Fed channel) AC50, cells fed with added oleic acid

For Cc1nn(CC(O)COc2ccc3c(c2)CCC3)c(C)c1Br (centres undefined), the cell number change was -39.4%, the AC50 [1] was 29.1 µM [falling, single point] and the AC50 [2] was 29.1 µM [falling, single point].

With C[C@H]1[C@H](c2ccccc2)C[C@@H](C(=O)O)C1(C)C the cell number change was -10.7% and the AC50 [2] was 1.64 µM [rising, partial curve, poor fit].

In the case of Cc1ccc(NC(=O)Cn2c(=O)n(CCCCC(=O)NCc3ccco3)c(=O)c3ccccc32)cc1, the cell number change is reported as 26.5%, the AC50 [1] is reported as 2.06 µM [rising, partial curve, poor fit] and the AC50 [2] is reported as 1.3 µM [rising, full curve].

In the case of CCCCn1c(N)c(N(Cc2ccccc2OC)C(=O)CC2OC(=O)c3ccccc32)c(=O)[nH]c1=O (centres undefined), the cell number change is reported as 5.94% and the AC50 [2] is reported as 18.4 µM [rising, partial curve].

In the case of Cc1ccc(-n2nnc3c(=O)n(CC(N)=O)cnc32)cc1, the AC50 [1] is reported as 6.51 µM [rising, single point].

For COC(=O)c1sccc1NC(=O)c1ccc(OC)c([N+](=O)[O-])c1, the cell number change was 0.923% and the AC50 [1] was 1.03 µM [falling, full curve].

For Oc1ccc2ccccc2c1C=NCc1cn2ccsc2n1, the cell number change was -7.18% and the AC50 [2] was 23.1 µM [falling, single point].

With COc1ccc(NC(=O)CSc2nc3[nH]ncc3c(=O)n2-c2ccccc2OC)cc1OC the cell number change was 34.5%, the AC50 [1] was 1.84 µM [rising, partial curve] and the AC50 [2] was 5.17 µM [rising, partial curve].

In the case of Cc1cc(Br)cc2c(C(=O)NCC3CCCO3)cc(-c3cccs3)nc12 (centres undefined), the cell number change is reported as -12.2% and the AC50 [2] is reported as 1.64 µM [falling, partial curve].

Molecule Cc1ccc(C(=O)Cc2cc3ccccc3oc2=O)c(C)c1 has a cell number change of 70.9%.

In the case of Cc1noc(/C=C/N(C)C)c1S(=O)(=O)N(C)Cc1ccc(F)cc1, the AC50 [2] is reported as 29.1 µM [falling, single point].

For Cc1cccc(N2CC(C(=O)Nc3nc4ccc(S(C)(=O)=O)cc4s3)CC2=O)c1C (centres undefined), the cell number change was 14.3% and the AC50 [2] was 0.103 µM [falling, partial curve, poor fit].

With Cc1oc(-c2ccccc2F)nc1CSCC(=O)NCc1ccc2c(c1)OCO2 the cell number change was -1.28% and the AC50 [2] was 6.51 µM [falling, single point].

In the case of COc1cc(/C=N/Nc2ccc(Cl)nn2)cc(OC)c1O, the cell number change is reported as 9.91% and the AC50 [2] is reported as 0.291 µM [rising, full curve].

For O=C(CCn1c(=S)oc2ccccc21)N1CCN(c2ccc(F)cc2)CC1, the cell number change was 16%.

With CCOC(=O)N1CCC(Nc2cc(C)nc3c(-c4ccccc4OC)c(C)nn23)CC1 the cell number change was 10.9% and the AC50 [2] was 0.092 µM [rising, full curve].

In the case of Cc1ccccc1CCN(C(=O)c1csnn1)C(C(=O)NC1CCCC1)c1ccncc1 (centres undefined), the cell number change is reported as 10.7% and the AC50 [2] is reported as 29.1 µM [falling, single point].

For COc1ccccc1N1CCN(S(=O)(=O)c2cn(C)nc2C)CC1, the cell number change was 26.7% and the AC50 [2] was 6.51 µM [rising, partial curve, poor fit].

In the case of CCOC(=O)c1cc2c(N)c(C(=O)c3cc(C#N)c(SC)nc3C)sc2nc1C, the cell number change is reported as 19.4% and the AC50 [2] is reported as 0.58 µM [rising, full curve].

With COc1ccc(-n2nc(C(=O)NCC(=O)NC3CCCC(C)C3C)c3ccccc3c2=O)cc1 (centres undefined) the cell number change was -6.76%.

With COc1cccc(NC(=O)CSc2ccc(-c3sc(C)nc3C)nn2)c1 the cell number change was -8.5% and the AC50 [2] was 4.47 µM [rising, full curve, poor fit].

In the case of CCOC(=O)c1ccc(NC(=O)CN(Cc2ccc(Cl)cc2)S(C)(=O)=O)cc1, the cell number change is reported as 34.7%, the AC50 [1] is reported as 5.17 µM [rising, partial curve] and the AC50 [2] is reported as 6.51 µM [rising, single point].

With CC(C)=C1C2CCC1C(C(=O)NCc1ccccc1)C2C(=O)O (centres undefined) the AC50 [2] was 18.4 µM [falling, partial curve].

In the case of COCC(C)n1c(SCc2nc(N)nc(Nc3ccccc3C)n2)nc2ccccc2c1=O (centres undefined), the cell number change is reported as 27.3%, the AC50 [1] is reported as 0.164 µM [rising, full curve, poor fit] and the AC50 [2] is reported as 9.2 µM [rising, partial curve].

With CCCc1[nH]nc2c1C(c1ccc(OC)c(CSC3=NCCS3)c1)C(C#N)=C(N)O2 (centres undefined) the cell number change was 15.1%, the AC50 [1] was 0.731 µM [rising, single point] and the AC50 [2] was 0.082 µM [rising, partial curve, poor fit].

With CCN(CC(=O)NCc1cccs1)C(=O)c1cc(S(=O)(=O)N2CCOCC2)ccc1C the cell number change was 23.7% and the AC50 [2] was 6.51 µM [falling, partial curve].

In the case of O=C(N/N=C/c1ccc(N2CCOCC2)c([N+](=O)[O-])c1)c1ccc(F)cc1, the cell number change is reported as 52.1%, the AC50 [1] is reported as 6.51 µM [rising, partial curve] and the AC50 [2] is reported as 16.4 µM [rising, partial curve].

In the case of COc1cccc(C(=O)N2CCN(C(=O)C3CC3)CC2)c1, the cell number change is reported as 15.7% and the AC50 [2] is reported as 29.1 µM [rising, single point].

In the case of Cc1ccc(CNC(=O)CN2C(=O)C3(OCCCO3)c3ccccc32)cc1, the cell number change is reported as 17.9%.

With Cc1cnc(C(=O)OCC(=O)NC(C)CCc2ccccc2)cn1 (centres undefined) the cell number change was 56.7% and the AC50 [2] was 8.2 µM [rising, partial curve].

C#CCOCCOCCOCCNc1nc(N2CCN(C(=O)CCCCCCCCCCNC(=O)[C@H](CO)n3cc(CCCSC)nn3)CC2)nc(N2CCN(C(=O)CCCCCCCCCCNC(=O)[C@H](CO)n3cc(CCCSC)nn3)CC2)n1 showed a cell number change of 9.37%.

CCOC(=O)c1sc(NC(=O)CCN2CCCCCC2)c(C(=O)OCC)c1C showed a cell number change of -30.2%.

With CN1CCN(C(=O)c2ccccc2NC(=O)c2cccs2)CC1 the cell number change was -12.7% and the AC50 [2] was 0.0259 µM [falling, full curve, poor fit].

In the case of CCOC(=O)C1=C(CSc2nc(C)cc(C)c2C#N)OC(N)=C(C#N)C1c1cccs1 (centres undefined), the cell number change is reported as 9.66% and the AC50 [2] is reported as 6.51 µM [falling, partial curve, poor fit].

For COC(=O)c1ccc(N=NNc2ccc(C(=O)OC)cc2)cc1, the cell number change was -12.3%, the AC50 [1] was 6.51 µM [rising, single point] and the AC50 [2] was 6.51 µM [rising, single point].

For CC(C)(C)C(=O)N1CCN(c2ccc([N+](=O)[O-])c(NCc3cccnc3)c2)CC1, the cell number change was -23.4% and the AC50 [2] was 25.9 µM [falling, single point].

Work on CC1CCN(C(=O)c2ccccc2NC(=O)Nc2ccccc2)CC1 yielded a cell number change of -18.4%.

For COC(=O)c1ccc2c(=O)n(CCO)c(=S)[nH]c2c1, the cell number change was -28.9% and the AC50 [2] was 20.6 µM [rising, partial curve].

Cc1ccc(S(=O)(=O)N2CCC(C(=O)Nc3ccc(S(=O)(=O)N4CCCC4)cc3)CC2)cc1C showed a cell number change of 10.8%.

For Cc1ccsc1/C=N/NC(=O)c1nnn(-c2nonc2N)c1CN(C)c1ccccc1, the cell number change was 14.9% and the AC50 [2] was 23.1 µM [falling, single point].

With CC(=O)c1cccc(NC(=O)N2CCCC2C(=O)Nc2cccc(C)c2)c1 (centres undefined) the cell number change was 1.09% and the AC50 [2] was 1.84 µM [rising, partial curve].

With CCCOC(=O)C1=C(C)NC2=C(C(=O)CCC2)C1c1ccc(N(C)C)cc1 (centres undefined) the cell number change was 4.4% and the AC50 [2] was 3.26 µM [rising, single point].

In the case of Cc1ccc(C(=O)O/N=C(\N)Cc2ccc([N+](=O)[O-])cc2)c(Cl)c1, the cell number change is reported as 17.8% and the AC50 [2] is reported as 0.00731 µM [rising, full curve, poor fit].

For CCN(CC)CC(=O)Nc1sc(C)c(C)c1C(=O)c1ccc(C)cc1, the AC50 [2] was 2.59 µM [rising, single point].

For CCOc1ccc(S(=O)(=O)Nc2ccc3c(c2)OCO3)c2cccnc12, the cell number change was -31.2%, the AC50 [1] was 0.259 µM [falling, full curve, poor fit] and the AC50 [2] was 1.3 µM [falling, full curve].

In the case of CCCCNC(=O)COC(=O)c1ccccc1F, the cell number change is reported as 1.17% and the AC50 [2] is reported as 0.00517 µM [falling, full curve, poor fit].

For CN(C(=O)CSc1nnnn1C)C1(C#N)CCCCC1, the cell number change was -49.4%, the AC50 [1] was 16.4 µM [falling, single point] and the AC50 [2] was 0.184 µM [falling, full curve, poor fit].

In the case of COc1ccccc1N1CCN(Cc2cc(Br)c(O)c3ncccc23)CC1, the cell number change is reported as -20.2% and the AC50 [2] is reported as 3.66 µM [falling, full curve, poor fit].

With CC(C)(C)c1cnnn1-c1ccc(NC(=O)c2ccc3c(c2)OCO3)cc1 the cell number change was 118%, the AC50 [1] was 11.6 µM [rising, partial curve] and the AC50 [2] was 2.91 µM [rising, partial curve].

With CCN(CC)C(=O)CSc1nc(Cc2ccccc2)nc2ccccc12 the cell number change was -10.8% and the AC50 [2] was 0.58 µM [rising, single point].

With Cc1nnc(C)c2c(C)n(-c3ccccc3)c(C)c12 the cell number change was 16.7% and the AC50 [1] was 0.651 µM [rising, single point].

For CSc1ccc(/C=C2/C(=N)N3N=C(CC(=O)N4CCCC4)SC3=NC2=O)cc1, the cell number change was -7.67%.

With C=CCn1c(Br)nc2c1c(=O)[nH]c(=O)n2C the cell number change was -98.1%, the AC50 [1] was 2.31 µM [falling, partial curve] and the AC50 [2] was 0.651 µM [falling, single point].

For CCOC(=O)c1ccc(CNC(=O)CSc2nnc(-c3ccncc3)o2)cc1, the cell number change was 52.8%, the AC50 [1] was 18.4 µM [rising, single point] and the AC50 [2] was 1.64 µM [rising, partial curve, poor fit].

In the case of CCOC(=O)c1c(NC(=O)c2nn(CC)cc2Br)sc(C)c1C, the AC50 [1] is reported as 4.61 µM [rising, partial curve] and the AC50 [2] is reported as 0.651 µM [rising, full curve].

COc1ccc(C(=O)OCC(=O)NCCN2C(=O)CSC2=O)cc1 showed a cell number change of -4.47%.

With Cc1ccc(Cl)cc1Nc1nc(-c2sc(NC(=O)c3ccccc3)nc2C)cs1 the cell number change was -49.2%, the AC50 [1] was 16.4 µM [falling, partial curve] and the AC50 [2] was 0.82 µM [falling, full curve, poor fit].
